No constants are given. Whether binding was seen depends on the method and setting. In cells and extracts the contact can be indirect. Some entries that bind do so weakly or less than the wild type.
Columns and labels:
Assay in all cases: co-IP; whole cell lysates (2 mg) of CL1-0 or H1355 cells with forced expression of PGK1 (wild type or mutant) or vector control, incubated overnight in IP buffer with protein A/G magnetic beads and antibodies against PGK1 or HTATSF1; western blot of HTATSF1 and PGK1; the legends call it a pull-down assay using beads
PGK1 K191del (human) = molecular target: T1, PGK1 K191del (human) (UniProt P00558)
T1 sequence: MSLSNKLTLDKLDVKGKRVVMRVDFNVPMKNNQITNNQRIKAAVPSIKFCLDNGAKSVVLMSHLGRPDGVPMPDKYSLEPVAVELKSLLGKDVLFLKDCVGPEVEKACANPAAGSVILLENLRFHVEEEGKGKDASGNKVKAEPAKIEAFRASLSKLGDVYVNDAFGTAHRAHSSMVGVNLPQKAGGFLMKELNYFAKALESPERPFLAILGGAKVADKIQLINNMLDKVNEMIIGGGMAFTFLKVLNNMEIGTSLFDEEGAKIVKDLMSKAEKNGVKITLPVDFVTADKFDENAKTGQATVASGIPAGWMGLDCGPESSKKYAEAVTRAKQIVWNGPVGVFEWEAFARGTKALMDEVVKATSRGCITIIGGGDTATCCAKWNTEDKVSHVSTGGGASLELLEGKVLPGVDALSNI

PGK1 D285V (human) = molecular target: T2, PGK1 D285V (human) (UniProt P00558)
T2 sequence: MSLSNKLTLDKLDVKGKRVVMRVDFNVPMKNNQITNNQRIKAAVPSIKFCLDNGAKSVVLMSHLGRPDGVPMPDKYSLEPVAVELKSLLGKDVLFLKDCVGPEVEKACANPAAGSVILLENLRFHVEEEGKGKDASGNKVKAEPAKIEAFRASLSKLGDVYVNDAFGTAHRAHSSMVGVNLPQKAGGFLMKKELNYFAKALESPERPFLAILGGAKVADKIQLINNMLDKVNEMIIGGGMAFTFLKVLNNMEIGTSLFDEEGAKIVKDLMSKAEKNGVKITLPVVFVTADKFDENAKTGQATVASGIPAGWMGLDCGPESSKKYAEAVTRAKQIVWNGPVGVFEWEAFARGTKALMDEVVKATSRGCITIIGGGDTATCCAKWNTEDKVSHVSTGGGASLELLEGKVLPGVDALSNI

[1] = molecular target: T3, Phosphoglycerate kinase 1 (PGK1), wild type, exogenous (human) (UniProt P00558)
T3 sequence: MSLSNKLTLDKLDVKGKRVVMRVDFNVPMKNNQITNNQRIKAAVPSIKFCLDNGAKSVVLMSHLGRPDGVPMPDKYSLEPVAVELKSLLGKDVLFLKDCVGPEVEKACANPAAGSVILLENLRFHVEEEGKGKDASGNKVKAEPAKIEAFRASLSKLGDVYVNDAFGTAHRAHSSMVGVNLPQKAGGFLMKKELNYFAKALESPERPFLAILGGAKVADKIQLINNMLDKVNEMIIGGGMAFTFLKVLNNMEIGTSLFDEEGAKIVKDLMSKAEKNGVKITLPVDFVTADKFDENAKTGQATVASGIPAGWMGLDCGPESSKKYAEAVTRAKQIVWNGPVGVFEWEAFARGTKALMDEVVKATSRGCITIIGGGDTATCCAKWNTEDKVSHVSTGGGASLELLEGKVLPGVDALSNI

PGK1 I253T (human) = molecular target: T4, PGK1 I253T (human) (UniProt P00558)
T4 sequence: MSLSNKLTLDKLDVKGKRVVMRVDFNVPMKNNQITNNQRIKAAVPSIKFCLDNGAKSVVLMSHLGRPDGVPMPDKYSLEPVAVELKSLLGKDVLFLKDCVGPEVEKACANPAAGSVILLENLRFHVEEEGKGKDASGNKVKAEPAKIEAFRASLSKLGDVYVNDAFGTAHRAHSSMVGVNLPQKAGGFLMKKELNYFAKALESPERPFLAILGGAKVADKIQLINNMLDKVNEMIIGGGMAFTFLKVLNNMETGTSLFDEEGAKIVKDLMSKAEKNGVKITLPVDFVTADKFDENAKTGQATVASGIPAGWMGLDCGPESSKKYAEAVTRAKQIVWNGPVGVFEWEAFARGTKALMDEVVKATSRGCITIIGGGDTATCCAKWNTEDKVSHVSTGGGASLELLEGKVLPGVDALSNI

PGK1 V266M (human) = molecular target: T5, PGK1 V266M (human) (UniProt P00558)
T5 sequence: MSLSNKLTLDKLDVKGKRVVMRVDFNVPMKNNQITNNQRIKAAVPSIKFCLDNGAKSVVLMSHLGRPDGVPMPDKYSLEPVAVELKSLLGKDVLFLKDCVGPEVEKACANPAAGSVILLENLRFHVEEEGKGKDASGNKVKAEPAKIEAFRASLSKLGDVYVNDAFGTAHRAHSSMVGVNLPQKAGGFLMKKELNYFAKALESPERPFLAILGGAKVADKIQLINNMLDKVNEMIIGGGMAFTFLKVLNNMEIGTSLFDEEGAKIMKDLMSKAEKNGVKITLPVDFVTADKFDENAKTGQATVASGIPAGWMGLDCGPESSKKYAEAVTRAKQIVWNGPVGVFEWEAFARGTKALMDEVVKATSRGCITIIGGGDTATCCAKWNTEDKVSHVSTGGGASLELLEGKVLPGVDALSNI

binding (PGK1 K191del (human)): binds
binding (PGK1 D285V (human)): binds
binding [1]: binds
binding (PGK1 I253T (human)): binds
binding (PGK1 V266M (human)): binds
B1: HIV-1 Tat Specific Factor 1 (HTATSF1) (protein, UniProt O43719 1-755)
chain: MSGTNLDGNDEFDEQLRMQELYGDGKDGDTQTDAGGEPDSLGQQPTDTPYEWDLDKKAWFPKITEDFIATYQANYGFSNDGASSSTANVEDVHARTAEEPPQEKAPEPTDARKKGEKRKAESGWFHVEEDRNTNVYVSGLPPDITVDEFIQLMSKFGIIMRDPQTEEFKVKLYKDNQGNLKGDGLCCYLKRESVELALKLLDEDEIRGYKLHVEVAKFQLKGEYDASKKKKKCKDYKKKLSMQQKQLDWRPERRAGPSRMRHERVVIIKNMFHPMDFEDDPLVLNEIREDLRVECSKFGQIRKLLLFDRHPDGVASVSFRDPEEADYCIQTLDGRWFGGRQITAQAWDGTTDYQVEETSREREERLRGWEAFLNAPEANRGLRRSDSVSASERAGPSRARHFSEHPSTSKMNAQETATGMAFEEPIDEKKFEKTEDGGEFEEGASENNAKESSPEKEAEEGCPEKESEEGCPKRGFEGSCSQKESEEGNPVRGSEEDSPKKESKKKTLKNDCEENGLAKESEDDLNKESEEEVGPTKESEEDDSEKESDEDCSEKQSEDGSEREFEENGLEKDLDEEGSEKELHENVLDKELEENDSENSEFEDDGSEKVLDEEGSEREFDEDSDEKEEEEDTYEKVFDDESDEKEDEEYADEKGLEAADKKAEEGDADEKLFEESDDKEDEDADGKEVEDADEKLFEDDDSNEKLFDEEEDSSEKLFDDSDERGTLGGFGSVEEGPLSTGSSFILSSDDDDDDI
